At least one compound was matched to its structure with a doubt left.
How the values were obtained:
[1] = tested on: A549 cells; assay: Cell migration assay (Boyden chamber / transwell), A549 cells; settings: no amplification of VEGFR
[2] = tested on: H23 tumor cells; assay: Tumor cell secretion of cytokines, ELISA of conditioned media; format: cell-based; settings: 1 μM, 24 hours
[3] = tested on: HCC827 cells; assay: Tumor cell survival with erlotinib after VEGF with or without axitinib; format: cell-based; settings: HCC827 cells (EGFR activating mutation), erlotinib added after 24 hours

| SMILES | cell migration [1] | tumor-derived HGF level [2] | tumor-derived IL-8 level [2] | tumor-derived PDGF-AB/BB level [2] | VEGF-increased tumor cell survival in the presence of erlotinib [3] |
| --- | --- | --- | --- | --- | --- |
| CCN(CC)CCNC(=O)c1c(C)[nH]c(/C=C2\C(=O)Nc3ccc(F)cc32)c1C [sunitinib] | has no effect on migration | significantly decreased | significantly decreased | significantly decreased |  |
| CNC(=O)c1ccccc1Sc1ccc2c(/C=C/c3ccccn3)n[nH]c2c1 [axitinib] |  |  |  |  | reversed the effect |

— US20130230511A1, “BIOMARKERS FOR RESPONSE TO TYROSINE KINASE PATHWAY INHIBITORS IN CANCER” (BOARD OF REGENTS, THE UNIVERSITY OF TEXAS SYSTEM, priority 2012, published 2013)
